For this assay, the target named is alkaline phosphatase (S. cerevisiae) (S. cerevisiae (endogenous in INVSc1)). Kind of assay: SEC; endogenous proteins of INVSc1 yeast without LLA66, co-purified by DEAE ion exchange (200 to 300 mM NaCl), Ni-NTA (eluted by at least 100 mM imidazole), strong anion exchange, then size exclusion chromatography; bands of approximately 60, 40 and 30 kDa of the active peak identified by LC-MS/MS.

These are yes or no findings as the source states them, for the method shown. In cells and extracts the contact can be indirect. A result given as binding can be weak or reduced; the word gives no strength.

B1: IPP:DMAPP isomerase (S. cerevisiae) (enzyme, UniProt P15496 1-288)
chain: MTADNNSMPHGAVSSYAKLVQNQTPEDILEEFPEIIPLQQRPNTRSSETSNDESGETCFSGHDEEQIKLMNENCIVLDWDDNAIGAGTKKVCHLMENIEKGLLHRAFSVFIFNEQGELLLQQRATEKITFPDLWTNTCCSHPLCIDDELGLKGKLDDKIKGAITAAVRKLDHELGIPEDETKTRGKFHFLNRIHYMAPSNEPWGEHEIDYILFYKINAKENLTVNPNVNEVRDFKWVSPNDLKTMFADPSYKFTPWFKIICENYLFNWWEQLDDLSEVENDRQIHRML
In the case of B1, the binding result is given as “binds”.

B2: farnesyl diphosphate synthase (S. cerevisiae) (enzyme, UniProt P08524 1-352)
chain: MASEKEIRRERFLNVFPKLVEELNASLLAYGMPKEACDWYAHSLNYNTPGGKLNRGLSVVDTYAILSNKTVEQLGQEEYEKVAILGWCIELLQAYFLVADDMMDKSITRRGQPCWYKVPEVGEIAINDAFMLEAAIYKLLKSHFRNEKYYIDITELFHEVTFQTELGQLMDLITAPEDKVDLSKFSLKKHSFIVTFKTAYYSFYLPVALAMYVAGITDEKDLKQARDVLIPLGEYFQIQDDYLDCFGTPEQIGKIGTDIQDNKCSWVINKALELASAEQRKTLDENYGKKDSVAEAKCKKIFNDLKIEQLYHEYEESIAKDLKAKISQVDESRGFKADVLTAFLNKVYKRSK
On to B2, for which the binding result is “binds”.

For the origin of these results see publication PMC6696123.
